This assay concerns the target C-terminally tagged P672 (P672_RHIPU), glycosylated (Rhipicephalus pulchellus) (UniProt L7MC74). Description: BLI; both purified. A general note: In BLI a coated tip is dipped into the sample, and binding shifts an interference pattern.

By UniProt entry, the sequences of proteins in these tests, tags left out. Residues count along the entry.
UniProt P80075, residues 24-99: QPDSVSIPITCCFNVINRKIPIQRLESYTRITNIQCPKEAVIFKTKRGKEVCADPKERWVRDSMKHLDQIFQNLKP

These are yes or no findings as the source states them, for the method shown. Some results given as binding are weak or reduced against the parent protein; the word gives no strength.

For the substance “CCL8 (human chemokine panel) (from UniProt P80075 24-99) (ligand)”, the binding result is recorded as “binds”.

(Values after publication PMC5912465.)
